Results from one PubChem assay

Data taken from PubChem BioAssay AID1296009, deposited by NCATS (2018).

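ATP-based luminescent viability readout in virus-positive and virus-negative MCC lines, measured at 72 h.
Dose-response series of 8 or 11 points, topping out at 44.8 µM.
The number is a fitted potency (AC50, nM) for loss of viability; a lower value means a more potent compound.
Calls follow curve shape: inconclusive marks small, poorly fitted or top-dose-only inhibition, while active requires a well-fitted curve with a large effect.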

Values are in nM.
Every entry below has the call inconclusive.
Only part of the assay is shown, chiefly results filed as inconclusive.
A potency from a partial, single-point or poor curve is only a rough figure.
Some entries filed as inconclusive have a full curve.

SMILES | setting | Potency (nM) | curve
CC(C)(c1ccc(O)cc1)c1ccc(O)cc1 | UISO | 55592 | inhibitor, partial curve, poor fit
CCCCCCCCCCCCCCCC[N+](C)(C)CCN(Cc1ccc(OC)cc1)c1ncccn1 | MCC-26 | 23715 | inhibitor, single point
CCCCCCCCCCCCCCCC[N+](C)(C)CCN(Cc1ccc(OC)cc1)c1ncccn1 | MCC-13 | 26608 | inhibitor, single point
CCNC(=O)CC1N=C(c2ccc(Cl)cc2)c2cc(OC)ccc2-n2c(C)nnc21 (stereo not given) | WaGa | 11770 | inhibitor, partial curve
CCNC(=O)CC1N=C(c2ccc(Cl)cc2)c2cc(OC)ccc2-n2c(C)nnc21 (stereo not given) | MKL-2 | 6619 | inhibitor, full curve, poor fit
CNC(C)Cc1ccc2c(c1)OCO2 (stereo not given) | MCC-26 | 84208 | inhibitor, partial curve, poor fit
CNC(C)Cc1ccc2c(c1)OCO2 (stereo not given) | WaGa | 84208 | inhibitor, single point
CNC(C)Cc1ccc2c(c1)OCO2 (stereo not given) | MKL-1 | 84208 | inhibitor, single point
CNC(C)Cc1ccc2c(c1)OCO2 (stereo not given) | UISO | 59614 | inhibitor, single point
CCCCCCCC/C=C\CCCCCCCC(=O)NCc1ccc(O)c(OC)c1 | UISO | 16788 | inhibitor, partial curve
CCS(=O)(=O)c1cccc(-c2cc(C(=O)NC3CCN(C)CC3)c(C)c3[nH]c4ncc(C)cc4c23)c1 | MCC-13 | 18654 | inhibitor, partial curve
C[C@]12CCC(=O)C=C1CC[C@@H]1[C@@H]2CC[C@]2(C)C(=O)CC[C@@H]12 | UISO | 26608 | inhibitor, partial curve
C[C@]12CCC(=O)C=C1CC[C@@H]1[C@@H]2CC[C@]2(C)C(=O)CC[C@@H]12 | WaGa | 26608 | inhibitor, partial curve
Cc1ccc(NC(=O)Nc2cc(C(F)(F)F)ccc2F)cc1Nc1ccc2c(c1)NC(=O)C2=Cc1ccc[nH]1 | MCC-13 | 20930 | inhibitor, single point
Cc1ccc(NC(=O)Nc2cc(C(F)(F)F)ccc2F)cc1Nc1ccc2c(c1)NC(=O)C2=Cc1ccc[nH]1 | MCC-26 | 18654 | inhibitor, partial curve, poor fit
CCOC(=O)N1CCN([N+]([O-])=NOc2ccc([N+](=O)[O-])cc2C#N)CC1 | MCC-26 | 4686 | inhibitor, full curve
CN(C)CCc1c[nH]c2ccc(O)cc12 | MCC-26 | 42398 | inhibitor, single point
CN(C)CCc1c[nH]c2ccc(O)cc12 | MKL-2 | 26751 | inhibitor, partial curve, poor fit
CO[C@H]1C=CO[C@@]2(C)Oc3c(C)c(O)c4c(O)c(c(/C=N/N5CCN(C)CC5)c(O)c4c3C2=O)NC(=O)/C(C)=C\C=C[C@H](C)[C@H](O)[C@@H](C)[C@@H](O)[C@@H](C)[C@H](OC(C)=O)[C@@H]1C | WaGa | 16788 | inhibitor, partial curve, poor fit
CO[C@H]1C=CO[C@@]2(C)Oc3c(C)c(O)c4c(O)c(c(/C=N/N5CCN(C)CC5)c(O)c4c3C2=O)NC(=O)/C(C)=C\C=C[C@H](C)[C@H](O)[C@@H](C)[C@@H](O)[C@@H](C)[C@H](OC(C)=O)[C@@H]1C | MKL-2 | 29855 | inhibitor, single point
CO[C@H]1C=CO[C@@]2(C)Oc3c(C)c(O)c4c(O)c(c(/C=N/N5CCN(C)CC5)c(O)c4c3C2=O)NC(=O)/C(C)=C\C=C[C@H](C)[C@H](O)[C@@H](C)[C@@H](O)[C@@H](C)[C@H](OC(C)=O)[C@@H]1C | UISO | 18837 | inhibitor, single point
Nc1nc(Cl)nc2c1ncn2[C@@H]1O[C@H](CO)[C@@H](O)[C@@H]1F | MCC-13 | 149.6 | inhibitor, full curve
O=[N+]([O-])c1cc([N+](=O)[O-])c2ccccc2c1 | UISO | 2731 | inhibitor, full curve
O=[N+]([O-])c1cc([N+](=O)[O-])c2ccccc2c1 | WaGa | 21689 | inhibitor, partial curve
CCCCOc1cc(C(=O)NCCN(CC)CC)c2ccccc2n1 | UISO | 21136 | inhibitor, partial curve
CNc1nc(-c2ccc3c(N)n[nH]c3c2)cc(N2C[C@@H](C(=O)NC3CCCCC3)CC[C@@H]2C)n1 | MKL-2 | 2348 | inhibitor, partial curve, poor fit
O=C(CCCN1CC=C(n2c(=O)[nH]c3ccccc32)CC1)c1ccc(F)cc1 | MCC-13 | 33498 | inhibitor, single point
CC(=O)OCC1=C(C(=O)O)N2C(=O)[C@@H](N)[C@H]2SC1 | WaGa | 11582 | inhibitor, single point
CC(=O)OCC1=C(C(=O)O)N2C(=O)[C@@H](N)[C@H]2SC1 | MKL-2 | 5805 | inhibitor, partial curve
CN1CCC(O)(c2ccc(F)cc2)C(C(=O)c2ccc(F)cc2)C1 (stereo not given) | MKL-2 | 16788 | inhibitor, single point
C#Cc1cccc(Nc2ncnc3cc(OCCOC)c(OCCO)cc23)c1 | WaGa | 1663 | inhibitor, full curve
C#Cc1cccc(Nc2ncnc3cc(OCCOC)c(OCCO)cc23)c1 | UISO | 2635 | inhibitor, full curve
C#Cc1cccc(Nc2ncnc3cc(OCCOC)c(OCCO)cc23)c1 | MKL-1 | 20930 | inhibitor, partial curve
O=C(N/N=C/c1ccc([N+](=O)[O-])o1)c1ccc(O)cc1 | MCC-13 | 21136 | inhibitor, single point
Oc1c(I)cc(Cl)c2cccnc12 | MCC-26 | 21136 | inhibitor, single point
Cc1cc(O)c(C)c(C)c1O | UISO | 14963 | inhibitor, partial curve
CC[C@@H]1[C@@H](C)O[C@@](O)([C@@H](C)[C@H](O)[C@H](C)[C@H]2OC(=O)C=CC=C[C@@H](C)[C@@H]([C@@H](C)[C@@H](O)[C@H](C)[C@@]3(O)C[C@H](O[C@H]4C[C@H](O)[C@H](O)[C@H](C)O4)[C@H](CC)[C@@H](C)O3)OC(=O)C=CC=C[C@@H]2C)C[C@H]1O[C@H]1C[C@H](O)[C@H](O)[C@H](C)O1 | MKL-2 | 1866 | inhibitor, full curve
NCCc1ccc(O)cc1 | MKL-2 | 21136 | inhibitor, partial curve
NCCc1ccc(O)cc1 | WaGa | 29855 | inhibitor, single point